The other results are listed elsewhere or left out. The list holds hits alone, and they repeat only in part.
Key:
Test in all cases: PRISMA enrichment of interactor (LFQ) in peptide spot vs all other peptide spots (log2 fold change); higher = stronger / more specific binding of the interactor to the peptide
ACSL3, O95573 = target: ACSL3, O95573
Protocol: (§1)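 PRISMA: 15-aa overlapping tiles (offset 8 aa) of 60 microproteins, plus SOS1/GLUT1 control peptides, were spot-synthesized on cellulose membranes in triplicate. Membranes were incubated with benzonase-treated HEK293T lysate, and bound proteins were identified by LC-MS/MS with LFQ. Enrichment is the log2 fold change of each protein in one spot versus all other spots. Only interactors passing the significance cutoff are listed.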

Amino acid sequences for entries named in this document (tags omitted).
ANAPC7, Q9UJX3, UniProt Q9UJX3, whole entry: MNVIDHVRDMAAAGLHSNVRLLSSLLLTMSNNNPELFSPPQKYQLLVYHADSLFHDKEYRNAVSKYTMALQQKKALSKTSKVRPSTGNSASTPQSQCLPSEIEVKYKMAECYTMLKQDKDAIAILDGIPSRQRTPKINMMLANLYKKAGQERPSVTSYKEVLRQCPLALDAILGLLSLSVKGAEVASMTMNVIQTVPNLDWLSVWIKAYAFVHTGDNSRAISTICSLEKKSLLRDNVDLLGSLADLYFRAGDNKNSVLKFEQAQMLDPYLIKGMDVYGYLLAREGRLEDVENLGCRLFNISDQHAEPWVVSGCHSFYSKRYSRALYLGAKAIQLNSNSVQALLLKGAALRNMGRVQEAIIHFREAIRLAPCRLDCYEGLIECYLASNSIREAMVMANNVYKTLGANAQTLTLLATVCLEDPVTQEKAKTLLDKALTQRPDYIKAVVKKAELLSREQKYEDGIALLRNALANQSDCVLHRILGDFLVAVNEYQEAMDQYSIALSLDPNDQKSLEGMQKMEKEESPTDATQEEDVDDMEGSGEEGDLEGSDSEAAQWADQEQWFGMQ
NDUFA2, O43678, UniProt O43678, whole entry: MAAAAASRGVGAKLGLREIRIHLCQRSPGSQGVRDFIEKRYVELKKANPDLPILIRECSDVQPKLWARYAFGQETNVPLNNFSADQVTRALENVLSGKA
RAB7A, P51149, UniProt P51149, whole entry: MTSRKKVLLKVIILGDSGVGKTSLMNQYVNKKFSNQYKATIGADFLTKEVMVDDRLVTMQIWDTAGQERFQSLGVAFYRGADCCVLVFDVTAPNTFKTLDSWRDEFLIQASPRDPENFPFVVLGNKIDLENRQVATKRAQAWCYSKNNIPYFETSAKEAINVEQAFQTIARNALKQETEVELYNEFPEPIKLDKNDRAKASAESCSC
RFC4, P35249, UniProt P35249, whole entry: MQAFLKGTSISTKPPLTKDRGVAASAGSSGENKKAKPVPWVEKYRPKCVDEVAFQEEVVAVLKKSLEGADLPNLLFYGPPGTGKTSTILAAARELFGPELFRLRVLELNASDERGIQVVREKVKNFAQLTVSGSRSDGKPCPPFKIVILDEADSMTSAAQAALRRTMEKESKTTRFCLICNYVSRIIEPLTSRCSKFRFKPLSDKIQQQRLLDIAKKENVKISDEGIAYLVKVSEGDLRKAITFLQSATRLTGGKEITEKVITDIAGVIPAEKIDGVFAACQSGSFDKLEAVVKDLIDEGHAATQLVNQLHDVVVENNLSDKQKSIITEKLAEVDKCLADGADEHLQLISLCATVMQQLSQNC
ATP6V1F, Q16864, UniProt Q16864, whole entry: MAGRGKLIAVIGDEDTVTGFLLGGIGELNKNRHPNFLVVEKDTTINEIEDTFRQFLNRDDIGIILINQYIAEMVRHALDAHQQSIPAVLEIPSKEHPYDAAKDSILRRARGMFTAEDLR
EIF2S2, P20042, UniProt P20042, whole entry: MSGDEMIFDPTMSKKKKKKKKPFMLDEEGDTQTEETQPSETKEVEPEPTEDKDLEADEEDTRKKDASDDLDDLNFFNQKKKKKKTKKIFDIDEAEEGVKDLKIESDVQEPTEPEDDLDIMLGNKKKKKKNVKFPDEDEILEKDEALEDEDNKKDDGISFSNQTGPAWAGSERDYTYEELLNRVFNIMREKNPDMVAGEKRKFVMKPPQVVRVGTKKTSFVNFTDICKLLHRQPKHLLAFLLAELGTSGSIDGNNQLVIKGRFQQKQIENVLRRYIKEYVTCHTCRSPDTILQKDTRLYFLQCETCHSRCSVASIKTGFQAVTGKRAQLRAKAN
EP300, Q09472, UniProt Q09472, whole entry: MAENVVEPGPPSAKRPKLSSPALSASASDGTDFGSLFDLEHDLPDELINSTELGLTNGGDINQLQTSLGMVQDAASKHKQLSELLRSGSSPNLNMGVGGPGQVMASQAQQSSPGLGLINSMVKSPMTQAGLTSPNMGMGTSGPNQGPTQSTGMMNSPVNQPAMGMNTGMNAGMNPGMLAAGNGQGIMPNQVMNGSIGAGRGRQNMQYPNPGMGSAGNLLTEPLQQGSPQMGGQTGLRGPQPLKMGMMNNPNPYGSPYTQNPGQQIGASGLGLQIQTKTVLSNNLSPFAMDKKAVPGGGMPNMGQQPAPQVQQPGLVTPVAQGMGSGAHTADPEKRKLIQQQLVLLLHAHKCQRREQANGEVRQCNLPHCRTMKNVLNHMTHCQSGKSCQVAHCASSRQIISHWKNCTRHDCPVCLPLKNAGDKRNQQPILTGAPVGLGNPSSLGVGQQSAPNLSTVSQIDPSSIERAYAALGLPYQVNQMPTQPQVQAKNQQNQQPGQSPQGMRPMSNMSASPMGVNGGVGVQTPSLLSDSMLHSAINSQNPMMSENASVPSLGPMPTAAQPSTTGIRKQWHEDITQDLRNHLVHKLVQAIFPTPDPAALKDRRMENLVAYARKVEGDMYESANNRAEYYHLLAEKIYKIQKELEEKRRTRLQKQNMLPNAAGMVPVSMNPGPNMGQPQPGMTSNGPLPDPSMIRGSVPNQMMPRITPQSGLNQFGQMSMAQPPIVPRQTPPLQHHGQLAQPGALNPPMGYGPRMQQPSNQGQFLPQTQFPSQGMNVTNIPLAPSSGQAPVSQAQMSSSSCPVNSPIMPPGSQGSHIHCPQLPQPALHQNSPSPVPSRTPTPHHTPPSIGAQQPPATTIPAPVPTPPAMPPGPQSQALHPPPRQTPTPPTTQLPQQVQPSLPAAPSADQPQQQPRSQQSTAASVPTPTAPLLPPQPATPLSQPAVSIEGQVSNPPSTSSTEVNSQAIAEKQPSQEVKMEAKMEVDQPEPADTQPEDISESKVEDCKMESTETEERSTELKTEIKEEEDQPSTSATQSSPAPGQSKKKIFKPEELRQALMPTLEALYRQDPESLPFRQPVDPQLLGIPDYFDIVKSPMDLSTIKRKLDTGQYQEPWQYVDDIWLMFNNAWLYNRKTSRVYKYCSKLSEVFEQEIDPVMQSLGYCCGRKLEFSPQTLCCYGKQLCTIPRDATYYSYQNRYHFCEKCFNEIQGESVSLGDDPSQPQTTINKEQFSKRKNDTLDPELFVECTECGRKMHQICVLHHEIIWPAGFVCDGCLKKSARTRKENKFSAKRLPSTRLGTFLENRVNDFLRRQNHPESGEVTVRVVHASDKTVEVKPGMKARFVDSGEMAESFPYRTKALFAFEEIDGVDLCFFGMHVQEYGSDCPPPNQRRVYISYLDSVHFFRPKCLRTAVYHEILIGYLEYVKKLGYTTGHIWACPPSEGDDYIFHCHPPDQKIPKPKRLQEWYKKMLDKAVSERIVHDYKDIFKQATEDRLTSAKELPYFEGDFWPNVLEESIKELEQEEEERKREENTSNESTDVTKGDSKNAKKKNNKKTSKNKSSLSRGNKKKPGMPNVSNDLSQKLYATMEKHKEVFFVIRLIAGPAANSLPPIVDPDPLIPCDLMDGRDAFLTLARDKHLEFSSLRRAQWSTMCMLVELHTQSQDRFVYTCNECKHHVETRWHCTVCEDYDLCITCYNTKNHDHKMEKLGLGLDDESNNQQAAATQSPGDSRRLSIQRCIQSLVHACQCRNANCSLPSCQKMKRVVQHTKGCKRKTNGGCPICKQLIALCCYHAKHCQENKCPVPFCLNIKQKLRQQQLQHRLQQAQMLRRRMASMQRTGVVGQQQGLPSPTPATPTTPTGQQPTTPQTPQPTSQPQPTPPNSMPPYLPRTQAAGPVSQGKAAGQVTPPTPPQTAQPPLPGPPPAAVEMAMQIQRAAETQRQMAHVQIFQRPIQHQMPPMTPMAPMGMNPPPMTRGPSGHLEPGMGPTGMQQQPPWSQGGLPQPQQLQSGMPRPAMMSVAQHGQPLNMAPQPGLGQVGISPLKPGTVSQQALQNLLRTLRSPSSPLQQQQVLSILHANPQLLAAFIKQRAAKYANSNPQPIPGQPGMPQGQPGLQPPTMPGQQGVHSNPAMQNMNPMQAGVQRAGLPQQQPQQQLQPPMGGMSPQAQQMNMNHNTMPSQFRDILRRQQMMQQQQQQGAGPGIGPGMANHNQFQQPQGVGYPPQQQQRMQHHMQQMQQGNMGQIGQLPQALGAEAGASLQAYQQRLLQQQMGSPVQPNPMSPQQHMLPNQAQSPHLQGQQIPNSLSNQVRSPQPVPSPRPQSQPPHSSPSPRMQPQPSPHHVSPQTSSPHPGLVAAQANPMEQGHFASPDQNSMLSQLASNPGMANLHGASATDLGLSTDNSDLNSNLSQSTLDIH
PFN2, P35080, UniProt P35080, whole entry: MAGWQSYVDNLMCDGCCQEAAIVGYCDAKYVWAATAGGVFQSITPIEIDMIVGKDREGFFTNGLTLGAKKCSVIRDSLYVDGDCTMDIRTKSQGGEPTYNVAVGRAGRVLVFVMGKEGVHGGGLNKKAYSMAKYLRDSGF
RGPD5, Q99666, UniProt Q99666, whole entry: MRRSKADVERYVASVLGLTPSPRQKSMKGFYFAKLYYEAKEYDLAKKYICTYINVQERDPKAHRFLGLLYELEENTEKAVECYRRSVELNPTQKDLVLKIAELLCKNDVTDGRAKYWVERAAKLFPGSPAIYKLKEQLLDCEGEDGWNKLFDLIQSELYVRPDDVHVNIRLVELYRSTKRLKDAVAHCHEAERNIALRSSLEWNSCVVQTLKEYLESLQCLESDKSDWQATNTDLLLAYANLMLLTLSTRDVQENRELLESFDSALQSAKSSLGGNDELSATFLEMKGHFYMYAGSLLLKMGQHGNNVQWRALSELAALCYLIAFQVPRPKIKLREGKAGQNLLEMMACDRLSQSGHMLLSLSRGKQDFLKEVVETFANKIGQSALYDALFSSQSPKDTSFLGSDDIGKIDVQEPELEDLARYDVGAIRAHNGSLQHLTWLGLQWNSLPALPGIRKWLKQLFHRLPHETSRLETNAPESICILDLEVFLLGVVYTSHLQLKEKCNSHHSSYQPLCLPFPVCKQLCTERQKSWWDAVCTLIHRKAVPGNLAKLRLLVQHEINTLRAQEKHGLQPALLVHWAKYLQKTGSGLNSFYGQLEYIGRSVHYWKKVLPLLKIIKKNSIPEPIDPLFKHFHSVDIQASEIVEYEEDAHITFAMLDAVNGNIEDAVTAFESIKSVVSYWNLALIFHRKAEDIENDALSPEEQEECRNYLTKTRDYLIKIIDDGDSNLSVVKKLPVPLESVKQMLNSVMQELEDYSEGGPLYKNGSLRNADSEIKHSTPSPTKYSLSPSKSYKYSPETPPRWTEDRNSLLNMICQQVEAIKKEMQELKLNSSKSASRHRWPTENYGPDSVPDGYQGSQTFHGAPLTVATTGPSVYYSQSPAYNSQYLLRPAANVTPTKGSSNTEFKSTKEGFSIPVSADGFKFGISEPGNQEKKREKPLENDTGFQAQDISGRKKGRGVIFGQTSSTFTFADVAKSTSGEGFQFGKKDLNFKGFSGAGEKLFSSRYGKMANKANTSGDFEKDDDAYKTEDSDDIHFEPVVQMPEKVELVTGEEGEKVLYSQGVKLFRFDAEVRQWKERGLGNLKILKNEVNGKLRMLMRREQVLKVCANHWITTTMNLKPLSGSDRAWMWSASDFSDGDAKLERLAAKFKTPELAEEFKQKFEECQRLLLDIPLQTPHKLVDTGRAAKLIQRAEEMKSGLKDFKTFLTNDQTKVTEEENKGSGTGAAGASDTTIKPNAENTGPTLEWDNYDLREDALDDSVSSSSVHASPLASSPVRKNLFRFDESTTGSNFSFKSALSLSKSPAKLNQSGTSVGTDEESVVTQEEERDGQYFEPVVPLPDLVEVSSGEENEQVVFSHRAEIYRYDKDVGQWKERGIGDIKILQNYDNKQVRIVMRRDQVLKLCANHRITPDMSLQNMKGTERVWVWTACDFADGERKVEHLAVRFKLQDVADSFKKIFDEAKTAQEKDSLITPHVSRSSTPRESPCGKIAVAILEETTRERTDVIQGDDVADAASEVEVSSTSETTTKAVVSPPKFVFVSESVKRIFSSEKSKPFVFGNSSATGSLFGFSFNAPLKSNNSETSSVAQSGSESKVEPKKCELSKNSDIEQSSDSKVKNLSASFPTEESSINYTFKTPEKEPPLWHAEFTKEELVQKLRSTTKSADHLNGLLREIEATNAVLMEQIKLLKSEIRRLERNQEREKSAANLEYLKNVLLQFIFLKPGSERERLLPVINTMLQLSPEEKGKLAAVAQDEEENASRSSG
SNX1, Q13596, UniProt Q13596, whole entry: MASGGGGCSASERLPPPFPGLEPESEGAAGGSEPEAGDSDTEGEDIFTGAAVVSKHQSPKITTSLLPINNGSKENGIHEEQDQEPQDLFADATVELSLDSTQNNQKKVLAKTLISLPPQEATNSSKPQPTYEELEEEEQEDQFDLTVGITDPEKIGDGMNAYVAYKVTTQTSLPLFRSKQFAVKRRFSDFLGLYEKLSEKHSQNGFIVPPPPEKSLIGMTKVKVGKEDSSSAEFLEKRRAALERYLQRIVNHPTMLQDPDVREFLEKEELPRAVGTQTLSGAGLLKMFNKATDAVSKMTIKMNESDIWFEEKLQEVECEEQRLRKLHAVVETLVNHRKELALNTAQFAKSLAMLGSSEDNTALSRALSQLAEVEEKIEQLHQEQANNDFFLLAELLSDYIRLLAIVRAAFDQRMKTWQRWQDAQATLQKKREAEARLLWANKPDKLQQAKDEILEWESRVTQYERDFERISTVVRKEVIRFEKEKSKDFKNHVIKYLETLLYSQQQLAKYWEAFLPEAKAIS

ANAPC7, Q9UJX3 = target: ANAPC7, Q9UJX3
Protocol: as §1

ANKRD17, O75179 = target: ANKRD17, O75179
Protocol: as §1

BCKDK, O14874 = target: BCKDK, O14874
Protocol: as §1

BTAF1, O14981 = target: BTAF1, O14981
Protocol: as §1

CDC73, Q6P1J9 = target: CDC73, Q6P1J9
Protocol: as §1

CENPE, Q02224 = target: CENPE, Q02224
Protocol: as §1

CHD1, O14646 = target: CHD1, O14646
Protocol: as §1

CHPT1, Q8WUD6 = target: CHPT1, Q8WUD6
Protocol: as §1

COA7, Q96BR5 = target: COA7, Q96BR5
Protocol: as §1

COPG1, Q9Y678 = target: COPG1, Q9Y678
Protocol: as §1

DNTTIP2, Q5QJE6 = target: DNTTIP2, Q5QJE6
Protocol: as §1

DPF2, Q92785 = target: DPF2, Q92785
Protocol: as §1

ECI2, O75521 = target: ECI2, O75521
Protocol: as §1

GNAS = target: GNAS
Protocol: as §1

GNB2, P62879 = target: GNB2, P62879
Protocol: as §1

GRSF1, Q12849 = target: GRSF1, Q12849
Protocol: as §1

KHDRBS1, Q07666 = target: KHDRBS1, Q07666
Protocol: as §1

NDUFA2, O43678 = target: NDUFA2, O43678
Protocol: as §1

NKRF, O15226 = target: NKRF, O15226
Protocol: as §1

OAT, P04181 = target: OAT, P04181
Protocol: as §1

PAICS, P22234 = target: PAICS, P22234
Protocol: as §1

QKI, Q96PU8 = target: QKI, Q96PU8
Protocol: as §1

RAB7A, P51149 = target: RAB7A, P51149
Protocol: as §1

RFC4, P35249 = target: RFC4, P35249
Protocol: as §1

RO60, P10155 = target: RO60, P10155
Protocol: as §1

TBL2, Q9Y4P3 = target: TBL2, Q9Y4P3
Protocol: as §1

TNPO3, Q9Y5L0 = target: TNPO3, Q9Y5L0
Protocol: as §1

TUFM, P49411 = target: TUFM, P49411
Protocol: as §1

UBIAD1, Q9Y5Z9 = target: UBIAD1, Q9Y5Z9
Protocol: as §1

UBR5, O95071 = target: UBR5, O95071
Protocol: as §1

WDR6, Q9NNW5 = target: WDR6, Q9NNW5
Protocol: as §1

ZCCHC10, Q8TBK6 = target: ZCCHC10, Q8TBK6
Protocol: as §1

ATP6V1F, Q16864 = target: ATP6V1F, Q16864
Protocol: as §1

EIF2B2, P49770 = target: EIF2B2, P49770
Protocol: as §1

KNOP1, Q1ED39 = target: KNOP1, Q1ED39
Protocol: as §1

STAG2, Q8N3U4 = target: STAG2, Q8N3U4
Protocol: as §1

UMPS, P11172 = target: UMPS, P11172
Protocol: as §1

USP15, Q9Y4E8 = target: USP15, Q9Y4E8
Protocol: as §1

ACTB, P60709 = target: ACTB, P60709
Protocol: as §1

C18orf21, Q32NC0 = target: C18orf21, Q32NC0
Protocol: as §1

CEP290, O15078 = target: CEP290, O15078
Protocol: as §1

CHD4, Q14839 = target: CHD4, Q14839
Protocol: as §1

CLPB, Q9H078 = target: CLPB, Q9H078
Protocol: as §1

CMSS1, Q9BQ75 = target: CMSS1, Q9BQ75
Protocol: as §1

DHX37, Q8IY37 = target: DHX37, Q8IY37
Protocol: as §1

DUSP9, Q99956 = target: DUSP9, Q99956
Protocol: as §1

EIF2S2, P20042 = target: EIF2S2, P20042
Protocol: as §1

EP300, Q09472 = target: EP300, Q09472
Protocol: as §1

JPT2, Q9H910 = target: JPT2, Q9H910
Protocol: as §1

MAP4, P27816 = target: MAP4, P27816
Protocol: as §1

MED15, Q96RN5 = target: MED15, Q96RN5
Protocol: as §1

NEK7, Q8TDX7 = target: NEK7, Q8TDX7
Protocol: as §1

PFN2, P35080 = target: PFN2, P35080
Protocol: as §1

RBM17, Q96I25 = target: RBM17, Q96I25
Protocol: as §1

RBM27, Q9P2N5 = target: RBM27, Q9P2N5
Protocol: as §1

RCE1, Q9Y256 = target: RCE1, Q9Y256
Protocol: as §1

RFC1, P35251 = target: RFC1, P35251
Protocol: as §1

RGPD5, Q99666 = target: RGPD5, Q99666
Protocol: as §1

RRP9, O43818 = target: RRP9, O43818
Protocol: as §1

SAFB, Q15424 = target: SAFB, Q15424
Protocol: as §1

SART3, Q15020 = target: SART3, Q15020
Protocol: as §1

SNX1, Q13596 = target: SNX1, Q13596
Protocol: as §1

SURF6, O75683 = target: SURF6, O75683
Protocol: as §1

TBCD, Q9BTW9 = target: TBCD, Q9BTW9
Protocol: as §1

ZNF428, Q96B54 = target: ZNF428, Q96B54
Protocol: as §1

B1: MKKS (peptide)
chain: SLGLSNLQKSQIQGK
PRISMA enrichment of interactor (log2) (ACSL3, O95573): 5.29
PRISMA enrichment of interactor (log2) (ANAPC7, Q9UJX3): 7.95
PRISMA enrichment of interactor (log2) (ANKRD17, O75179): 5.89
PRISMA enrichment of interactor (log2) (BCKDK, O14874): 7.09
PRISMA enrichment of interactor (log2) (BTAF1, O14981): 4.54
PRISMA enrichment of interactor (log2) (CDC73, Q6P1J9): 4.69
PRISMA enrichment of interactor (log2) (CENPE, Q02224): 5.25
PRISMA enrichment of interactor (log2) (CHD1, O14646): 4.63
PRISMA enrichment of interactor (log2) (CHPT1, Q8WUD6): 5.87
PRISMA enrichment of interactor (log2) (COA7, Q96BR5): 5.68
PRISMA enrichment of interactor (log2) (COPG1, Q9Y678): 4.97
PRISMA enrichment of interactor (log2) (DNTTIP2, Q5QJE6): 5.37
PRISMA enrichment of interactor (log2) (DPF2, Q92785): 6.22
PRISMA enrichment of interactor (log2) (ECI2, O75521): 4.33
PRISMA enrichment of interactor (log2) (GNAS): 6.43
PRISMA enrichment of interactor (log2) (GNB2, P62879): 4.46
PRISMA enrichment of interactor (log2) (GRSF1, Q12849): 4.82
PRISMA enrichment of interactor (log2) (KHDRBS1, Q07666): 6.21
PRISMA enrichment of interactor (log2) (NDUFA2, O43678): 3.77
PRISMA enrichment of interactor (log2) (NKRF, O15226): 4.7
PRISMA enrichment of interactor (log2) (OAT, P04181): 6.06
PRISMA enrichment of interactor (log2) (PAICS, P22234): 5.23
PRISMA enrichment of interactor (log2) (QKI, Q96PU8): 4.49
PRISMA enrichment of interactor (log2) (RAB7A, P51149): 6.03
PRISMA enrichment of interactor (log2) (RFC4, P35249): 5.87
PRISMA enrichment of interactor (log2) (RO60, P10155): 4.48
PRISMA enrichment of interactor (log2) (TBL2, Q9Y4P3): 5.35
PRISMA enrichment of interactor (log2) (TNPO3, Q9Y5L0): 8.04
PRISMA enrichment of interactor (log2) (TUFM, P49411): 5.49
PRISMA enrichment of interactor (log2) (UBIAD1, Q9Y5Z9): 6.4
PRISMA enrichment of interactor (log2) (UBR5, O95071): 3.93
PRISMA enrichment of interactor (log2) (WDR6, Q9NNW5): 4.99
PRISMA enrichment of interactor (log2) (ZCCHC10, Q8TBK6): 4.86

B2: BANCR (peptide)
chain: GPFSGNIFLVTMKGQ
PRISMA enrichment of interactor (log2) (ACSL3, O95573): 3.76
PRISMA enrichment of interactor (log2) (ATP6V1F, Q16864): 3.83
PRISMA enrichment of interactor (log2) (EIF2B2, P49770): 4.45
PRISMA enrichment of interactor (log2) (KNOP1, Q1ED39): 3.73
PRISMA enrichment of interactor (log2) (STAG2, Q8N3U4): 4.96
PRISMA enrichment of interactor (log2) (UMPS, P11172): 5.27
PRISMA enrichment of interactor (log2) (USP15, Q9Y4E8): 4.1

B3: RP11-620J15.3 (peptide)
chain: LAVKENRECAKEHTD
PRISMA enrichment of interactor (log2) (ACTB, P60709): 4.92
PRISMA enrichment of interactor (log2) (C18orf21, Q32NC0): 4.8
PRISMA enrichment of interactor (log2) (CEP290, O15078): 6.03
PRISMA enrichment of interactor (log2) (CHD4, Q14839): 8.15
PRISMA enrichment of interactor (log2) (CLPB, Q9H078): 5.97
PRISMA enrichment of interactor (log2) (CMSS1, Q9BQ75): 5.72
PRISMA enrichment of interactor (log2) (DHX37, Q8IY37): 7.72
PRISMA enrichment of interactor (log2) (DUSP9, Q99956): 4.14
PRISMA enrichment of interactor (log2) (EIF2S2, P20042): 6.83
PRISMA enrichment of interactor (log2) (EP300, Q09472): 5.01
PRISMA enrichment of interactor (log2) (JPT2, Q9H910): 5.22
PRISMA enrichment of interactor (log2) (MAP4, P27816): 5.12
PRISMA enrichment of interactor (log2) (MED15, Q96RN5): 3.82
PRISMA enrichment of interactor (log2) (NEK7, Q8TDX7): 4.37
PRISMA enrichment of interactor (log2) (PFN2, P35080): 5.77
PRISMA enrichment of interactor (log2) (RBM17, Q96I25): 4.94
PRISMA enrichment of interactor (log2) (RBM27, Q9P2N5): 4.94
PRISMA enrichment of interactor (log2) (RCE1, Q9Y256): 3.83
PRISMA enrichment of interactor (log2) (RFC1, P35251): 4.71
PRISMA enrichment of interactor (log2) (RGPD5, Q99666): 5.56
PRISMA enrichment of interactor (log2) (RRP9, O43818): 5.71
PRISMA enrichment of interactor (log2) (SAFB, Q15424): 5.22
PRISMA enrichment of interactor (log2) (SART3, Q15020): 9
PRISMA enrichment of interactor (log2) (SNX1, Q13596): 7.97
PRISMA enrichment of interactor (log2) (SURF6, O75683): 4.43
PRISMA enrichment of interactor (log2) (TBCD, Q9BTW9): 7.35
PRISMA enrichment of interactor (log2) (ZNF428, Q96B54): 4.59
